Some results were stated once for a whole list of compounds, not compound by compound.
Molecular target: T1, alpha-synuclein (α-syn) (Homo sapiens, UniProt P37840)
T1 construct: purchased rPeptide
Test: Thioflavin T (ThT) fluorescence assay of α-syn fibril formation
Assay type: biochemical
Settings: compound 100 μM; for inhibition of α-syn aggregation / fibril formation (in words): ThT assay
Experimental: Thioflavin fluorescence assays. Thioflavin fluorescence assays were used to monitor fibril formation of recombinant α-syn, tau isoform 2N4R, treated with control DMSO and different compounds. Kinetics of α-syn fibrillization were performed using thioflavin T (ThT) as published previously.^32′ ^37 The fluorescence emission experiments were performed with the excitation and emission wavelengths set at 440 and 485 nm, respectively, with a Synergy HT multi-mode microplate reader (BioTek, Winooski, VT). Samples were measured in three replicates and the experiments were repeated three times using at least two different stock solutions. For each time point, arbitrary units of fluorescence were calculated from the mean values normalized against the maximum value in each completed assay. All results contained in FIG. 1 were presented as mean±SEM.
FIG. 1. Chemical structure, physicochemical descriptors, and the effect of compounds on alpha-synuclein (α-syn) aggregation measured as fluorescence intensity using ThT assay. TPSA, Log P, and Log D were obtained with SwissADME. BBB and pKa were obtained from the Blood-Brain Barrier Prediction Server (https://www.cbligand.org/BBB/) and Chemaxon, respectively. CNS MPO scores were assessed as published previously, The ThT (%) represent the maximum fluorescence intensity obtained at the plateau phase of the kinetics of fibrillization using 6.25 μM of α-syn. Compounds were tested at 100 μM (molar ratio 1:16). BBB, blood-brain barrier; C log D, calculated distribution coefficient at 7.4; C log P, calculated partition coefficient; CNS MPO, Central Nervous System Multi Parameter Optimization; HBA, Hydrogen Bond Acceptor; HBD, Hydrogen Bond Donor; LR5, Lipinski's rule of five; pKa, negative log of acid dissociation constant; ThT, Thioflavin T; TPSA, Topological polar surface area.

Structure (SMILES): Clc1nc(Cl)nc(Oc2cccc3[nH]ccc23)n1 [Compound 13]
- inhibition of α-syn aggregation / fibril formation (in words): loss of activity

Structure (SMILES): Clc1nc(Cl)nc(Oc2ccc3[nH]ccc3c2)n1 [Compound 14]
- inhibition of α-syn aggregation / fibril formation (in words): loss of activity

Structure (SMILES): Clc1nc(Oc2cccc3[nH]ccc23)nc(Oc2cccc3[nH]ccc23)n1 [Compound 19]
- inhibition of α-syn aggregation / fibril formation (in words): loss of activity

Structure (SMILES): Clc1nc(Oc2ccc3[nH]ccc3c2)nc(Oc2ccc3[nH]ccc3c2)n1 [Compound 20]
- inhibition of α-syn aggregation / fibril formation (in words): loss of activity

Structure (SMILES): Clc1nc(Nc2ccc3cc[nH]c3c2)nc(Nc2ccc3cc[nH]c3c2)n1 [Compound 24]
- ThT fluorescence intensity (FI), maximum at the plateau phase of α-syn fibrillization (α-syn 6.25 μM (molar ratio 1:16), compared with DMSO control, mean±SEM, listed as compound 24, 100 µM): −0.3-12%

— patent US20260285847A1, “SYMMETRIC AMINOINDOLE-LINKED TRIAZINE FOR A DUAL EFFECT ON ALPHA-SYNUCLEIN AND TAU ISOFORM 2N4R FIBRILLIZATION” (Purdue Research Foundation, priority 2023, published 2026)
